pIC50: −log10 of the molar value.
System: A549 cells
Experiment: Clonogenic assay
Type: cell-based
Settings: Homo sapiens
Protocol: The NSCLC cancer cell lines, A549, H1975, CL25, CL83, CL97, CL141, and CL152 were maintained in RPMI medium. Tested cells were seeded respectively in 6 well plates with 10^4 cells per well for 14 days. Each well contained 10 ml RPMI medium as cultured condition for NSCLC cells. […] Trifluoperazine and other tested drugs were added 24 hours after seeding of the cells. The medium and trifluoperazine were changed once on day 4. After the treatments, cells were washed with PBS, and the colonies were fixed with fix solution (acetic acid:methanol=1:3) and stained with 0.5% crystal violet in methanol. After removing the crystal violet carefully and rinse with tap water, the colonies were counted manually.

pIC50: 5.00 to 5.30
SMILES: CN1CCN(CCCN2c3ccccc3Sc3ccc(Cl)cc32)CC1 [Prochlorperazine]

Source: patent US20140294994A1, “PHARMACEUTICAL COMPOSITION FOR ELIMINATION OF CANCER STEM CELLS” (priority 2011, published 2014)
